# Where a name gives a salt, the structure may show the parent alone.
# Legend:
# [1] = Capacity of polymer modified glass fiber monoliths for analytes; settings: PSDVB-NHCOCH3; weight of analyte adsorbed at 30% breakthrough; N=3
# [2] = as above; settings: PSDVB; weight of analyte adsorbed at 30% breakthrough; N=3
# [3] = as above; settings: NVA-DVB “high”; weight of analyte adsorbed at 30% breakthrough; N=3
SMILES,Amount of analyte adsorbed (sorbent capacity) [1],Amount of analyte adsorbed (sorbent capacity) [2],Amount of analyte adsorbed (sorbent capacity) [3]
CCCCNCC(O)c1ccc(O)cc1.CCCCNCC(O)c1ccc(O)cc1.O=S(=O)(O)O (stereo not drawn) [Bamathan hemisulfate],2.0 µg,0 µg,14 µg
CCCC(C)(COC(N)=O)COC(=O)NC(C)C (stereo not drawn) [Carisoprodol],1.2 µg,0 µg,57 µg
CNC(=C[N+](=O)[O-])NCCSCc1ccc(CN(C)C)o1 [Ranitidine HCl],1.1 µg,0 µg,44 µg
CC(C)(C)NCC(O)c1ccc(O)c(CO)c1 (stereo not drawn) [Salbutamol],0 µg,0 µg,4 µg
CC(C)(C)NC[C@H](O)COc1nsnc1N1CCOCC1 [Timolol maleate],1.2 µg,0 µg,65 µg

# Reference: patent US20060247361A1, “Polar functionalized polymer modified porous substrate for solid phase extraction” (priority 2005, published 2006)
